Results: PMC9392644
No constants are given. Whether binding was seen depends on the method and setting. In cells and extracts the contact can be indirect. Some results given as binding are weak or reduced against the parent protein; the word gives no strength. Sequences can lack the tags named with a protein.

Sequences of proteins named here, by UniProt entry; tags and fusion partners are left off.
UniProt P05412: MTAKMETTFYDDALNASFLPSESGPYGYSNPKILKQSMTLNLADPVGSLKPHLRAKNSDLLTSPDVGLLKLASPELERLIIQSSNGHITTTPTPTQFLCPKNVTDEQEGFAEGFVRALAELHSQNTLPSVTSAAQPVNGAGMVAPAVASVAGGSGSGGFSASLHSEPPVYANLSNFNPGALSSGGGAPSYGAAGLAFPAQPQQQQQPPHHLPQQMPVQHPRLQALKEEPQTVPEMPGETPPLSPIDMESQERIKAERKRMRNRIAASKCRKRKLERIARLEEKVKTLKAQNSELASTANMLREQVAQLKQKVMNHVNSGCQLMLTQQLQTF

Target: Flag-tagged c-Jun/AP-1 (UniProt P05412)
Assay: co-IP; BCPAP cells cotransfected with His-tagged UHRF1 and Flag-tagged c-Jun; IP lysis buffer (20 mM Tris-HCl pH 8.0, 150 mM NaCl, 0.5% NP-40, 10% glycerol); lysate incubated with His-tag or Flag-tag antibody 3 h at 4°C, then Protein A/G beads 16 h at 4°C; bound proteins detected with His-tag or Flag-tag antibodies

B1: His-tagged UHRF1 (ubiquitin-like with PHD and ring-finger domain 1) (protein, UniProt Q96T88 1-793)
chain: MWIQVRTMDGRQTHTVDSLSRLTKVEELRRKIQELFHVEPGLQRLFYRGKQMEDGHTLFDYEVRLNDTIQLLVRQSLVLPHSTKERDSELSDTDSGCCLGQSESDKSSTHGEAAAETDSRPADEDMWDETELGLYKVNEYVDARDTNMGAWFEAQVVRVTRKAPSRDEPCSSTSRPALEEDVIYHVKYDDYPENGVVQMNSRDVRARARTIIKWQDLEVGQVVMLNYNPDNPKERGFWYDAEISRKRETRTARELYANVVLGDDSLNDCRIIFVDEVFKIERPGEGSPMVDNPMRRKSGPSCKHCKDDVNRLCRVCACHLCGGRQDPDKQLMCDECDMAFHIYCLDPPLSSVPSEDEWYCPECRNDASEVVLAGERLRESKKKAKMASATSSSQRDWGKGMACVGRTKECTIVPSNHYGPIPGIPVGTMWRFRVQVSESGVHRPHVAGIHGRSNDGAYSLVLAGGYEDDVDHGNFFTYTGSGGRDLSGNKRTAEQSCDQKLTNTNRALALNCFAPINDQEGAEAKDWRSGKPVRVVRNVKGGKNSKYAPAEGNRYDGIYKVVKYWPEKGKSGFLVWRYLLRRDDDEPGPWTKEGKDRIKKLGLTMQYPEGYLEALANREREKENSKREEEEQQEGGFASPRTGKGKWKRKSAGGGPSRAGSPRRTSKKTKVEPYSLTAQQSSLIREDKSNAKLWNEVLASLKDRPASGSPFQLFLSKVEETFQCICCQELVFRPITTVCQHNVCKDCLDRSFRAQVFSCPACRYDLGRSYAMQVNQPLQTVLNQLFPGYGNGR
binding: binds
